In publication PMC11486366 one finds binding data, which are given here for one substance.

Chains of the proteins cited; added tags and fusions are not shown.
UniProt Q962H9: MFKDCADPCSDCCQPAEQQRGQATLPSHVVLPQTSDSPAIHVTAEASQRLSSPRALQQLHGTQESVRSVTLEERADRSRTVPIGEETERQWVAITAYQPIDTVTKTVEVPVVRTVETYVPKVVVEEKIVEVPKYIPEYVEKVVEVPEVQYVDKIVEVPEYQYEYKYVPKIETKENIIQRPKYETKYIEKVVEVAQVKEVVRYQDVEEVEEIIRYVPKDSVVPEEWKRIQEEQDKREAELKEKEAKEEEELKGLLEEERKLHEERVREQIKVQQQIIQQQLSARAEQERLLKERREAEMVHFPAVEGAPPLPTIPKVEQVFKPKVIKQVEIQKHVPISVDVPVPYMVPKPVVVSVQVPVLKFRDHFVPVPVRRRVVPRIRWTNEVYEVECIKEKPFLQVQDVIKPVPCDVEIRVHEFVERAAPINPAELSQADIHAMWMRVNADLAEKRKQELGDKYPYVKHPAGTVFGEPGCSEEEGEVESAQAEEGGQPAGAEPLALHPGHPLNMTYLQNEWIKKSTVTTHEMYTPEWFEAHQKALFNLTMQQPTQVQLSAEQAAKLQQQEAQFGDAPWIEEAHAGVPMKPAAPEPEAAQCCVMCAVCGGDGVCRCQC

The target in the assay is FLAG-Myosin-A WT (complement) (Toxoplasma gondii) (UniProt O00934). The assay is described as follows: proximity labelling; reciprocal BAR in a cell line expressing FLAG-tagged MyoA; streptavidin beads, mass spectrometry.

Results are given in words; binding and its absence hold for the method and conditions named. Binding seen in cells or lysates may run through a third protein. These calls come from enrichment with a bait or labelling near it, and not all partners need be listed.

Consider IMC1 (from UniProt Q962H9 1-609), for which the binding result is listed as “binds”.
